Measurements from PubChem BioAssay AID540256 (National Center for Advancing Translational Sciences (NCATS), 2011).
Where “and” joins values, the source holds several entries; their conditions need not be identical. Equal entries are not always repeated. Screen size: about 300,000 compounds; about 3,700 (1.2%) were called active. The shares of active, inactive and inconclusive entries below differ from those in the screen. The call rests on the fitted dose curve; tested in HEK293 cells. A potency beside an inconclusive call is a rough fit, not a confirmed value.

Test: qHTS for Inhibitors of binding or entry into cells for Lassa Virus; further: nearly all actives have a fitted effect of over 50% in size
Settings: Lassa virus pseudotype entry inhibition, cell reporter; activity change, negative = inhibition: at 37.9 µM (top of the series) unless noted
On the % scale 0 is the no-effect control and ±100 the full control effect; potency means the concentration at half of the fitted maximal effect.

Row | SMILES | activity change, negative = inhibition | Potency
1 | S=C(c1cccs1)N1CCN(c2ccccc2)CC1 | inactive: 21.6% | –
2 | COc1ccc(NC(=O)c2sc3nc(C)nc(N4CCN(c5ccccn5)CC4)c3c2C)cc1Cl | – | inconclusive: 6.31 µM [inhibitor, single point]
3 | CC(COc1ccccc1)N(CCCl)Cc1ccccc1 (centres undefined) | – | inactive and inconclusive: 146 nM [activator, full curve, poor fit]
4 | Nc1ncn([C@@H]2O[C@H](CO)[C@@H](O)[C@H]2O)c(=O)n1 | – | active: 4.11 µM
5 | CCCCCc1ccc(-c2ccc(Br)cc2)nc1 | – | inconclusive: 1.26 µM [activator, partial curve, poor fit]
6 | COc1nc(NCCO)nc(Nc2cc(Cl)ccc2OC)n1 | – | inconclusive: 3.16 µM [inhibitor, full curve, poor fit]
7 | CC[n+]1c(/C=C2\Sc3ccccc3N2C)ccc2cccc(C)c21 | – | inconclusive: 3.55 µM [inhibitor, full curve, poor fit]
8 | CCOc1ccc(CCNC(=O)c2c(C)oc3ncn(CC(C)C)c(=O)c23)cc1OCC | inactive: 3.3% [at 46.1 µM] | –
9 | CCCCN(CCCC)C1=Nc2ccccc2N/C1=C(/C#N)C(=O)OCC | – | inconclusive: 7.08 µM [inhibitor, partial curve]
10 | O=c1oc2ccccc2cc1-c1nc(-c2ccccc2)no1 | – | inconclusive: 22.4 µM [inhibitor, single point]
11 | CCOC(=O)C(Cc1cc(C(C)=O)ccc1OC(C)C)C(=O)OCC | – | inconclusive: 31.6 µM [inhibitor, single point]
12 | N#CC(c1ccccc1)c1ccc(C(=O)c2ccc(F)cc2)cc1 (centres undefined) | – | inconclusive: 8.91 µM [inhibitor, partial curve]
13 | CCC(C)NC(=O)c1ccc(NC(=O)C2CCCO2)cc1 (centres undefined) | inactive: 28.5% | –
14 | CCN(CC)CCCNc1nc(-c2ccccc2)nc2ccccc12 | – | inconclusive: 23.1 µM [inhibitor, single point]
15 | CCOc1ccccc1NC(=O)Cn1c(=O)sc2ccccc21 | – | inconclusive: 0.708 µM [inhibitor, single point]
16 | COc1ccc(C(C(=O)NC2CCCC2)N(C(=O)c2ccoc2C)c2ccc(C)cc2)cc1 (centres undefined) | – | inconclusive: 13 µM [inhibitor, partial curve, poor fit]
17 | COC(=O)C1=C(C)N(c2ccc(Cl)cc2)/C(=C/c2ccc(O)cc2)C1=O | inactive: -20.4% | –
18 | CC(=O)NC(CCCN1C(=O)c2ccccc2C1=O)c1nnn(C)n1 (centres undefined) | inactive: -1.72% | –
19 | C=CCC(=O)NC1CC(C)(C)Cc2c1cnn2-c1ccccc1C (centres undefined) | – | inconclusive: 0.631 µM [inhibitor, single point]

Numbers 11–12 of the list above:
Row | SMILES | activity change, negative = inhibition | Potency
11 | CCOC(=O)C(Cc1cc(C(C)=O)ccc1OC(C)C)C(=O)OCC | – | inconclusive: 31.6 µM [inhibitor, single point]
12 | N#CC(c1ccccc1)c1ccc(C(=O)c2ccc(F)cc2)cc1 (centres undefined) | – | inconclusive: 8.91 µM [inhibitor, partial curve]
